Reference: PubChem BioAssay AID1347075 (National Center for Advancing Translational Sciences (NCATS), 2019)
The campaign covered roughly 400,000 compounds. About 5,500 (1.4%) were called active. This list was built around the results that the source calls inconclusive (neither active nor inactive); the mix of calls is not that of the screen. Calls come from the whole dose curve; as a rule, active = well fitted cell-killing curve with a large enough effect; inconclusive = small, poorly fitted or top-dose-only effect, or effect the other way; inactive = flat fitted curve, though single readings scatter. A potency beside an inconclusive call is a rough fit, not a confirmed value.
% is set by controls: 0 for no effect and ±100 for the full control effect; potency is the fitted concentration of half-maximal effect.

Experiment: qHTS assay for MDR1-selective chemotherapeutics: Primary screen using the parental adenocarcinoma cell KB-3-1; note: nearly all actives have a fitted effect of over 60% in size
Conditions: KB-3-1 viability, CellTiter-Glo ATP luminescence, 72 h; activity change, negative = cytotoxic: at 46.1 µM (top of the series)
Method in brief: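 KB-3-1 cells, DMEM (no phenol red) + 10% FBS; compound by pin transfer, 72 h, 37 °C. Readout: CellTiter-Glo luminescence after 10 min. Data normalized, curve-fitted.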
In the case of `CC(C)(C)c1ccc(C(=O)C[N+]2(C)CCCc3ccccc32)cc1` (stereo not drawn), the Potency is reported as inconclusive: 23.1 µM [cytotoxic, single point].
For `C#CC[N+]1(CC#Cc2cccc(C)c2)CCCCC1`, the Potency was inconclusive: 10.3 µM [cytotoxic, partial curve, poor fit].
With `COc1cccc(/C=N/Nc2ccc([N+](=O)[O-])cn2)c1O` the Potency was active: 5.17 µM.
For `COc1ccc(-c2nn(-c3ccccc3)cc2C(=O)O)cc1`, the Potency was inconclusive: 29.1 µM [rising, single point].
In the case of `COc1ccc(NC(=O)C2Cc3c(-c4cccc(F)c4)ccnc3O2)cn1` (stereo not drawn), the Potency is reported as inconclusive: 32.6 µM [cytotoxic, partial curve, poor fit].
With `Cc1ccc(Nc2cc(C)nc(-c3ccccc3)n2)cc1` the Potency was inconclusive: 29.1 µM [cytotoxic, single point].
In the case of `COc1ccc(Br)cc1CNC(=O)CCc1nc(-c2ccc(C)cc2)no1`, the Potency is reported as “inactive”.
For `Cn1c(=O)c2c(nc(CN3CCN(Cc4ccccc4)CC3)n2Cc2cccc(Cl)c2)n(C)c1=O`, the Potency was inconclusive: 29.1 µM [cytotoxic, single point].
With `Cc1ccc(OCCCCNC2CCCCC2)c(C)c1` the Potency was inconclusive: 29.1 µM [cytotoxic, single point].
In the case of `Cc1cccc2nc(-c3ccccc3)nc(N[C@@H](CO)c3ccccc3)c12`, the Potency is reported as inconclusive: 23.1 µM [cytotoxic, partial curve, poor fit].
In the case of `CCN(CC)c1ncnc2ccc(Br)cc12`, the Potency is reported as inconclusive: 29.1 µM [cytotoxic, single point].
With `Cc1ccc(S(=O)(=O)N2CCCN(S(=O)(=O)c3ccc(C(F)(F)F)cc3)CC2)cc1` the Potency was “inactive”.
In the case of `O=C(Nc1nnc(-c2ccncc2)o1)c1ccc(Br)s1`, the Potency is reported as active: 20.6 µM.
For `COc1ccc2c(c1)[nH]c1c(=O)n(/N=C/c3ccc(OC)c(CN4CCCC4)c3)cnc12`, the Potency was “inactive”.
For `O=C(Nc1nc2c(s1)CCCC2)c1ccc(N2C(=O)CCC2=O)cc1`, the Potency was “inactive”.
For `CCCCOC(=O)Nc1nnc(CC(=O)NCc2ccccc2)s1`, the Potency was inconclusive: 29.1 µM [cytotoxic, single point].
With `CC(C)C[C@H](NC(=O)c1nc[nH]c1C(=O)N1CCN(C(=O)OC(C)(C)C)CC1)C(=O)OCc1ccccc1` the Potency was inconclusive: 29.1 µM [cytotoxic, single point].
For `O=C1CCN(Cc2ccccc2)C=C1C(=O)c1ccccc1`, the Potency was “inactive”.
For `CC(=O)C1=C(S(=O)(=O)c2ccc(C)cc2)CS(=O)(=O)C1`, the Potency was inconclusive: 18.4 µM [cytotoxic, single point].
With `CCN(C[C@H]1N[C@@](C)(C(=O)OC)[C@H]2C(=O)N(Cc3ccccc3)C(=O)[C@@H]12)S(=O)(=O)c1ccccc1` the Potency was “inactive”.
For `O=C(OCc1ccccc1)/C(=C/c1cccc(Br)c1)NC(=O)c1ccco1`, the Potency was “inactive”.
For `Cc1sc2ncn(CC(=O)N(C)c3ccc(C(C)C)cc3)c(=O)c2c1S(=O)(=O)N1CCC(C)CC1`, the Potency was “inactive”.
For `COc1ccc(CN(C)C(=O)c2cc(-c3ccccc3)nc3ccc(C)cc23)c(OC)c1`, the Potency was active: 18.4 µM.
For `CCOC(=O)[C@H]1[C@H]2COc3ccc(C)cc3[C@@H]2N2C(=O)c3cc(F)c(F)cc3NC(=O)[C@@]12C`, the Potency was inconclusive: 18.4 µM [cytotoxic, single point].
In the case of `COC(=O)c1cc(N=Nc2c(C)[nH]c3ccccc23)cc(C(=O)OC)c1`, the Potency is reported as inconclusive: 32.6 µM [cytotoxic, single point].
For `Cc1nn(C(=O)CCCn2cc([N+](=O)[O-])cn2)c(C)c1Cl`, the Potency was inconclusive: 6.51 µM [rising, full curve].
In the case of `CC1(C(=O)Nc2ccc(F)c(Cl)c2)Cc2c(-c3ccccc3)ccnc2O1` (stereo not drawn), the Potency is reported as “inactive”.
In the case of `CCc1ccccc1NC(=S)N(CCN1CCOCC1)Cc1ccccc1F`, the Potency is reported as inconclusive: 29.1 µM [cytotoxic, single point].
In the case of `CC(=O)Nc1ccc(NS(=O)(=O)c2cccc3nonc23)cc1`, the Potency is reported as “inactive”.
With `COc1ccc(-c2ccc3oc(-c4ccsc4)c(-c4ccc(OC)cc4)c3c2)cc1` the Potency was “inactive”.
In the case of `COc1cccc(-c2nnc(NC(=O)c3ccc4ncsc4c3)o2)c1`, the Potency is reported as inconclusive: 23.1 µM [cytotoxic, single point].
In the case of `CCOC(=O)CNC(=S)n1cnc(N)n1`, the Potency is reported as inconclusive: 32.6 µM [cytotoxic, partial curve, poor fit].
With `CCCCN(CC)CCCNC(=O)c1cn(CC)c2ccc(S(=O)(=O)N3CCc4ccccc4C3)cc2c1=O` the Potency was inconclusive: 29.1 µM [cytotoxic, single point].
With `O=C(Nc1cccc(S(=O)(=O)N2CCCCC2)c1)C1CC(=O)N(Cc2ccccc2)C1` (stereo not drawn) the Potency was inconclusive: 18.4 µM [cytotoxic, single point].
With `CCc1ccccc1NC(=O)CCC(=O)N1CC(C)Oc2ccc(C)cc21` (stereo not drawn) the Potency was “inactive”.
With `COc1ccc(C(=O)Nc2ccc(Cc3ccncc3)cc2)cc1Br` the Potency was inconclusive: 29.1 µM [cytotoxic, partial curve, poor fit].
With `COc1ccc(NC(=O)OC(CN2CCCCC2)C(F)(F)F)cc1` (stereo not drawn) the Potency was inconclusive: 29.1 µM [cytotoxic, single point].
In the case of `CCOc1ccc(-n2c(SCC(=O)Nc3ccc(CC)cc3)nc3n[nH]c(C)c3c2=N)cc1`, the Potency is reported as inconclusive: 13 µM [rising, partial curve, poor fit].
With `COc1ccc(C(=O)NCc2ccc(-n3cccc3)cc2)cc1OC` the Potency was inconclusive: 16.4 µM [cytotoxic, single point].
In the case of `COc1ccc(/C=C/c2cc(C(F)(F)F)[nH]c(=O)n2)cc1OC`, the Potency is reported as inconclusive: 20.6 µM [cytotoxic, single point].
For `CS(=O)(=O)c1cccc(C(=O)Nc2ccc(S(=O)(=O)N3CCCCC3)cc2)c1`, the Potency was “inactive”.
In the case of `Cc1nc(-c2ccc(C(=O)Nc3ccccc3F)cc2)cs1`, the Potency is reported as inconclusive: 20.6 µM [cytotoxic, single point].
With `COc1ccc(NC(=O)c2c(NC(=O)COc3ccccc3)sc3c2CCCCC3)cc1` the Potency was “inactive”.
With `CCCCN(C(=O)c1ccc(N2CCCC2=O)cc1)c1c(N)n(Cc2ccccc2)c(=O)[nH]c1=O` the Potency was inconclusive: 6.51 µM [rising, partial curve, poor fit].
With `COc1ccc(-c2cn(Cc3ccc(C(N)=O)cc3)c(CCN)n2)cc1` the Potency was “inactive”.
For `CCC(=O)N1CCN(c2nc3ccccc3s2)CC1`, the Potency was inconclusive: 32.6 µM [cytotoxic, partial curve, poor fit].
For `NC(=O)N/N=C/c1c(O)ccc2oc3c(c12)CCCC3`, the Potency was inconclusive: 20.6 µM [cytotoxic, single point].
In the case of `C=C(C)C1Cc2c(C)nn(-c3cccc4ccccc34)c2C1` (stereo not drawn), the Potency is reported as inconclusive: 29.1 µM [cytotoxic, single point].
For `COc1ccc(NC(=O)CC2C(=O)N(c3cccc(OC)c3)C(=O)N2CCC2=CCCCC2)cc1` (stereo not drawn), the Potency was inconclusive: 18.4 µM [cytotoxic, partial curve, poor fit].
In the case of `COc1cc2ccccc2cc1C(=O)N(CCN(C)C)c1nc2c(C)cccc2s1`, the Potency is reported as inconclusive: 23.1 µM [cytotoxic, single point].
With `CCn1nnc2cc(C(=O)Nc3cc(C)ccc3C)ccc21` the Potency was inconclusive: 29.1 µM [cytotoxic, single point].
In the case of `Cc1ccccc1N1CC(c2nnc(NC(=O)c3ccco3)s2)CC1=O` (stereo not drawn), the Potency is reported as “inactive”.
In the case of `CC(C)c1ccc(CNc2nc(-c3ccco3)nn2S(=O)(=O)c2ccc(F)cc2)cc1`, the Potency is reported as inconclusive: 1.64 µM [cytotoxic, partial curve, poor fit].
In the case of `COc1ccc(C(O)c2nccc3cc(OC)c(OC)cc23)cc1OC` (stereo not drawn), the Potency is reported as inconclusive: 29.1 µM [cytotoxic, single point].
For `CCN(CC)C(=O)CN(c1cc2c(cc1OC)oc1ccccc12)S(=O)(=O)c1ccccc1`, the Potency was inconclusive: 29.1 µM [cytotoxic, single point].
In the case of `Cc1sc2nc3n(c(=O)c2c1C)NC(=O)CC3`, the Potency is reported as inconclusive: 23.1 µM [cytotoxic, single point].
For `COc1ccc(Cc2nnc(NC(=O)CS(=O)(=O)Cc3ccccc3)s2)cc1`, the Potency was “inactive”.
For `Cc1ccccc1-c1nc(C(=O)NCC2CCCO2)cc2c1[nH]c1ccccc12` (stereo not drawn), the Potency was inconclusive: 29.1 µM [cytotoxic, partial curve, poor fit].
In the case of `O=C(COc1ccccc1-c1ccccc1)N/N=C/c1ccc2ccccc2c1`, the Potency is reported as active: 1.3 µM.
For `CCC(C)Oc1nc2c(c(=O)n(C)c(=O)n2C)n1C` (stereo not drawn), the Potency was inconclusive: 8.2 µM [rising, partial curve, poor fit].
With `CC(C(=O)Nc1cc([N+](=O)[O-])ccc1Cl)N1CCN(c2ccccc2O)CC1` (stereo not drawn) the Potency was inconclusive: 18.4 µM [cytotoxic, single point].
With `CC(=O)Nc1cc[n+](C(C)C(=O)c2ccc(Br)cc2)cc1` (stereo not drawn) the Potency was inconclusive: 23.1 µM [cytotoxic, single point].
With `Cc1ccccc1NC(=S)NC1CCN(Cc2ccccc2)CC1` the Potency was “inactive”.
For `COc1ccc(C2CN=NC23CCCc2ccccc2C3=O)cc1` (stereo not drawn), the Potency was inconclusive: 29.1 µM [cytotoxic, single point].
In the case of `O=c1[nH]cnc2sc3c(c12)CCC3`, the activity change, negative = cytotoxic is reported as inconclusive: -3.64%.
With `CC(C)C[C@H]1CN=C(N(C)C)N1CC1CCCC1` the Potency was inconclusive: 1.64 µM [cytotoxic, partial curve, poor fit].
For `CC[N+]1=C(C)C(C)(C)c2cc(C)ccc21`, the Potency was inconclusive: 2.06 µM [cytotoxic, partial curve, poor fit].
For `COc1ccccc1-c1cc(=O)c2c(O)ccc([N+](=O)[O-])c2o1`, the Potency was active: 20.6 µM.
